Data on 1 substance can be found in paper PMC7746336.

Sequences of proteins named here, by UniProt entry; tags and fusion partners are left off.
UniProt Q14694: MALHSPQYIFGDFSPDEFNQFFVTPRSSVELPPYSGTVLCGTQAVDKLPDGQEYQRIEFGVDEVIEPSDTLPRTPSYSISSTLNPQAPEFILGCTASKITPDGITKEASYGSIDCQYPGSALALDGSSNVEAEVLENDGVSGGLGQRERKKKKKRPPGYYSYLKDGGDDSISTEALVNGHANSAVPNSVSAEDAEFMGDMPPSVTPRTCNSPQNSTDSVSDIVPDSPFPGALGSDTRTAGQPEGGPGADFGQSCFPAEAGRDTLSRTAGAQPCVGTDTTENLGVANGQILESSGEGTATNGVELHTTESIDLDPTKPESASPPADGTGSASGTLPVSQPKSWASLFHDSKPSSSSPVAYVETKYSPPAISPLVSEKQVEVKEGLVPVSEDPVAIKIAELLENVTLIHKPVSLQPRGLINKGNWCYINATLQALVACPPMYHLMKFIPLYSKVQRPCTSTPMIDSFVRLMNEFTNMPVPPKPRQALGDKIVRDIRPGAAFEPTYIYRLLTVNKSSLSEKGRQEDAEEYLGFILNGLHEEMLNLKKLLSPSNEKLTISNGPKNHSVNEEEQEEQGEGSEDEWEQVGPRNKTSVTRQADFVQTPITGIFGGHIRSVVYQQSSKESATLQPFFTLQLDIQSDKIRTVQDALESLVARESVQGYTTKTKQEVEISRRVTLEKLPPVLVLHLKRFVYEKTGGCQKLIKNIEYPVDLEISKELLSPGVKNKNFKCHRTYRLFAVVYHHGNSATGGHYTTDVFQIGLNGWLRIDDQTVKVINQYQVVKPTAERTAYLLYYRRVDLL
UniProt P16671: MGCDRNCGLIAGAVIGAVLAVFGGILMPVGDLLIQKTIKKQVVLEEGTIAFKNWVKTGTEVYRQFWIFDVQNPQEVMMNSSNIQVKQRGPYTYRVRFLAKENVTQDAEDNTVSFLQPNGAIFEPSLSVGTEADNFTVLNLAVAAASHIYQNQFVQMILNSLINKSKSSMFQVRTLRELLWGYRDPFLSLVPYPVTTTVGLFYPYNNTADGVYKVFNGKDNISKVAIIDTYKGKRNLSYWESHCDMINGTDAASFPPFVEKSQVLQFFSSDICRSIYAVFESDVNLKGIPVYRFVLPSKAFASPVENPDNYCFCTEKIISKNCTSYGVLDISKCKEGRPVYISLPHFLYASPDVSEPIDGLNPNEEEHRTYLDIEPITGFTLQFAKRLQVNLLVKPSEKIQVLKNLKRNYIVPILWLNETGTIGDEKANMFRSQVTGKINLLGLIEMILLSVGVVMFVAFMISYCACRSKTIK

These are yes or no findings as the source states them, for the method shown. In cells and extracts the contact can be indirect. Some results given as binding are weak or reduced against the parent protein; the word gives no strength.

For this experiment, the target named is Ubiquitin-specific peptidase 10 (human (endogenous in THP1)) (UniProt Q14694). The experiment is described as follows: co-IP; THP1 lysates reacted with antibody (anti-CD36 or anti-USP10) and dynabeads for 1-2 h, washed three times with PBS-T, immunoblot for the other protein. On the technique in general: In western blotting, separated proteins are transferred to a membrane and probed.

“CD36 (from UniProt P16671 1-472) (receptor)”: the binding entry is given as “binds”.
